Measurements reported in PubChem BioAssay AID504791 (Drosophila RNAi Screening Center, 2011).

Assay: 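Factors in Argonaute-based small RNA production and activity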 (primary screen)
Cell system: Drosophila S2-derived reporter cells
Reagent: long dsRNA against Drosophila genes, about 150-250 ng dsRNA per well (siRNA assay); about 80-120 ng (miRNA assay)
Timing: about 5 days (siRNA assay); about 4 days (miRNA assay)
Treatment: copper sulfate induction of reporters: 25 µM (siRNA assay); 200 mM stated (miRNA assay), 1-2 days before reading
Read-out: 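Per-well ratio of Renilla over firefly light, expressed relative to that plate's average ratio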
Units: stable assay Renilla, run 1 in luminescence; stable assay firefly, run 1 in luminescence
Rule for the call: 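a well was a first-pass pick when its plate-scaled ratio rose above 1.5 (siRNA assay) or 1.6 (miRNA assay), or dropped below 0.6; a gene counted only if two separate dsRNAs agreed on retest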
The deposit covers about 23,000 reagents; below is an unselected part of those that have a named target and a result. In the full data, 199 (0.86%) are marked active. 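Plate-scaled ratios behind the calls are not deposited; printed light signals are raw; many rows marked increased or decreased are still called inactive.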 The numbers tell different reagents against one gene apart. Reagent sequences are not shown. The record does not give: the direction of the score.

Against CG34451 #1, the entry reads stable assay Renilla, run 1 = 6335; stable assay firefly, run 1 = 5.69e5; inactive. Against CG34451 #2, the entry reads stable assay Renilla, run 1 = 5566; stable assay firefly, run 1 = 4.48e5; inactive. Against CG5767, the values are stable assay Renilla, run 1 = 5583; stable assay firefly, run 1 = 3.19e5; inactive. Depletion of baz resulted in: stable assay Renilla, run 1 = 5430; stable assay firefly, run 1 = 3.48e5; inactive. With knock-down of RNaseZ the results were stable assay Renilla, run 1 = 7882; stable assay firefly, run 1 = 4.71e5; inactive. Against Aladin, the entry reads stable assay Renilla, run 1 = 10408; stable assay firefly, run 1 = 5.14e5; inactive.

For RluA-2, the entry reads stable assay Renilla, run 1 = 21078; stable assay firefly, run 1 = 1.30e6; inactive. For RNF220, the values are stable assay Renilla, run 1 = 7324; stable assay firefly, run 1 = 2.61e5; inactive. With knock-down of galectin, the record shows stable assay Renilla, run 1 = 9129; stable assay firefly, run 1 = 6.64e5; inactive. After knock-down of CG34436 the results were stable assay Renilla, run 1 = 7163; stable assay firefly, run 1 = 4.34e5; inactive. Knock-down of CG7857 came out at: stable assay Renilla, run 1 = 6731; stable assay firefly, run 1 = 4.39e5; inactive. With knock-down of CG10560, the record shows stable assay Renilla, run 1 = 7298; stable assay firefly, run 1 = 3.37e5; inactive.

Silencing of CG42523 resulted in: stable assay Renilla, run 1 = 6111; stable assay firefly, run 1 = 4.33e5; inactive. For CG17560 the deposit lists stable assay Renilla, run 1 = 8061; stable assay firefly, run 1 = 4.27e5; inactive. CG15803 gave stable assay Renilla, run 1 = 7138; stable assay firefly, run 1 = 3.58e5; inactive.

Records above whose gene name starts with R or r:
RNaseZ — stable assay Renilla, run 1 = 7882; stable assay firefly, run 1 = 4.71e5; Call = inactive
RluA-2 — stable assay Renilla, run 1 = 21078; stable assay firefly, run 1 = 1.30e6; Call = inactive
RNF220 — stable assay Renilla, run 1 = 7324; stable assay firefly, run 1 = 2.61e5; Call = inactive

More entries follow:
Depletion of CheB93a gave: stable assay Renilla, run 1 = 7275; stable assay firefly, run 1 = 3.23e5; inactive. Depletion of Vm34Ca came out at: stable assay Renilla, run 1 = 8267; stable assay firefly, run 1 = 4.74e5; inactive. With knock-down of Ctl1 the results were stable assay Renilla, run 1 = 6523; stable assay firefly, run 1 = 4.78e5; inactive. Knock-down of GstD8 came out at: stable siRNA reporter change reporter ratio raised past the hit cutoff; miRNA reporter change reporter ratio raised past the hit cutoff; stable assay Renilla, run 1 = 9487; stable assay firefly, run 1 = 3.47e5; inactive. CG16812 scored stable assay Renilla, run 1 = 21481; stable assay firefly, run 1 = 1.13e6; inactive. CG33218 (retired record) gave stable assay Renilla, run 1 = 4655; stable assay firefly, run 1 = 4.23e5; inactive.

Against CG30043, the values are stable assay Renilla, run 1 = 6696; stable assay firefly, run 1 = 3.69e5; inactive. Mal-A1 gave stable assay Renilla, run 1 = 6914; stable assay firefly, run 1 = 3.46e5; inactive. For CG14715, the values are stable assay Renilla, run 1 = 8387; stable assay firefly, run 1 = 4.08e5; inactive. Hsp26 gave stable assay Renilla, run 1 = 7282; stable assay firefly, run 1 = 3.24e5; inactive. With knock-down of CG9312, the record shows stable assay Renilla, run 1 = 8655; stable assay firefly, run 1 = 6.01e5; inactive. With knock-down of CG9449, the screen gave stable assay Renilla, run 1 = 7350; stable assay firefly, run 1 = 4.01e5; inactive.

Grl62a gave stable siRNA reporter change reporter ratio raised past the hit cutoff; stable assay Renilla, run 1 = 5902; stable assay firefly, run 1 = 1.53e5; inactive.
